{
  "source": "patent US3985758A",
  "about": "“1,4-Dihydropyridine derivatives” (Yamanouchi Pharmaceutical Co., Ltd., priority 1973, dated 1976)",
  "key": {"[1]": {"experiment": "in vivo", "settings": "dog, iv"}, "[2]": {"experiment": "in vivo", "settings": "mouse, iv", "method": "LD50 was determined by using mice.\n2. Acute toxicity in mice\nMale ICR weighing 25 to 32 g were used. The test compounds were injected into tail vein and LD 50 values were determined."}, "[3]": {"experiment": "physchem", "settings": "water"}},
  "data": [
    {"smiles": "COC(=O)C1=C(C)NC(C)=C(C(=O)OC)C1c1ccccc1[N+](=O)[O-]", "note": "[Nifedipine, 4-(2'-nitrophenyl)-2,6-dimethyl-1,4-dihydropyridine-3,5-dicarboxylic acid dimethyl ester]", "values": [
      {"measurement": "LD50", "setting": "[1]", "result": 1.5, "unit": "mg/kg"},
      {"measurement": "LD50", "setting": "[2]", "result": 5.6, "unit": "mg/kg"},
      {"measurement": "solubility", "setting": "[3]", "result": 10, "unit": "µg/mL"},
      {"measurement": "solubility", "setting": "[3]; pH 4, water", "result": 10, "unit": "µg/mL"}
    ]}
  ]
}
